The record followed here is PubChem BioAssay AID445 (National Center for Advancing Translational Sciences (NCATS), 2006).

Some of the results follow. Further columns of the screen follow, without active or inactive calls. The list favours compounds with an active or inconclusive main result. Potencies come from curve fits of mixed quality, noted in brackets.

This test is described as follows: IkB Signaling. To be noted: ABC-DLBCL IkBa-CBG/CBR dual luciferase ratio (green luciferase fused to IkBa over red control in OCI-Ly3 lymphoma cells), 4 h. An excerpt:
NIH Molecular Libraries Screening Centers Network [MLSCN]
NIH Chemical Genomics Center [NCGC]
Nuclear factor kappa-B (NF-kappa-B) plays an important role in normal B cell development and survival. Diffuse large B cell lymphoma (DLBCL) is the most commonly observed type of non-Hodgkin's lymphoma. Gene expression analysis has identified an activated B cell-like subtype of DLBCL (ABC-DLBCL) which expresses known NF-kappa-B target genes. […] However, targets upstream of IKK have been largely unexplored and so nodes upstream of IKK in the NF-kappa-B pathway remain untested due to the lack of chemical probes.
A cell-sensor assay for I-kappa-B-alpha stabilization was developed with NIH investigator Dr. R. Eric Davis in Dr. Louis M. Staudt's laboratory. The assay uses green (CBG68) and red (CBR) emitting beetle luciferases [Chroma-Glo(TM) developed by Promega Corp.] where the green luciferase is fused to I-kappa-B-alpha and the red luciferase is present in its native state. Both luciferase genes are stably present in the OCI-Ly3 human ABC DLBCL cell line, but their expression is under the control of tetracycline-inducible promoters. Following the addition of doxycycline to induce expression of the luciferases, the green luminescence in control cultures rises only slowly because the CBG fusion partner I-kappa-B-alpha is targeted by IKK activity for rapid degradation. In contrast, green luminescence rises rapidly in the presence of proteasome inhibitors or IKK inhibitors. The rise in red luminescence of CBR is not affected by proteasome or IKK inhibitors, and serves as normalization for cell number and nonspecific effects. Compounds were screened as a concentration-titration series that ranged from 57 uM to 0.7 nM.
NCGC Assay Protocol Summary:
Cells were seeded in 1536-well plates at 5000 cells/3ul in IMDM medium containing 0.5% FBS, w/o phenol red, L-glutamine, 25 mM HEPES, 3 mg/ml sodium bicarbonate. After centrifugation for 1 min. at 1000 rpm, 23 nl of compounds or DMSO were delivered to each well using a pin tool. Then 1ul 80ng/ml doxycycline was dispensed into white solid 1536-well plates and the plates were incubated at 37C/5% C02 in a cell incubator for 4 hrs. Then 4 ul Chroma-Glo luminescent substrate mix (Promega) was added to each well. The plate was incubated at R.T. for 10-15 min. The plates were measured on a ViewLux plate reader for green luminescence (540/20 nm filter) and red luminescence (618/8 nm filter). The green and red luminescent signals were corrected for red and green luminescence filter overlap using previously determined filter calibration constants (determined using the procedure outlined in the Promega Technical Manual). The %Activity was determined from the ratio of corrected green/red luminescent values. Green luminescent and ratio %Activity was determined by normalizing to the difference in signal between basal cells (0% Activity) and cells incubated with 10 uM of the proteasome inhibitor MG-132 (100% Activity). Red luminescent %Activity was normalized to the difference between red luminesence in basal cells (0%Activity) and zero luminescence (-100% Activity).
Concentration-response curves were fitted to the signals arising from the green luminescence (I-kappa-B-alpha-luciferase fusion; IkB-luc) and the red luminescence (unfused luciferase; luc) as well as the calculated ratio. The concentration-effect curves were then classified based on curve quality (r2), response magnitude and degree of measured activity. Compounds were then categorized based on their concentration-response curves for all three datasets (Ikb-luc, luc and ratio).
Keywords: IKK, I-kappa-B, IkB, IkBa, cytotoxicity, luminescence, MLSMR, MLSCN, NIH Roadmap, qHTS, NCGC

Setting [1] is: measured here: control luc red channel unless noted.
[2] abbreviates: measured here: IkB-luc green channel.
[3] abbreviates: measured here: control luc red channel.

As a reminder, the AC50 is the midpoint of the concentration-response curve, whichever way the signal moves. In the case of `N#Cc1ccccc1NC(=O)c1ccc(-c2ccccc2Cl)o1`, the AC50 under setting [1] is 7.94 µM [falling, full curve, poor fit].

For `CCCNC(=O)c1cc(-c2ccc(O)cc2)on1`, the AC50 under setting [1] is 10 µM [falling, partial curve].

On to `Cc1cnc(=O)[nH]c1SCC(=O)Nc1nc2ccccc2s1`, for which the AC50 under setting [1] was 0.0251 µM [rising, partial curve].

In the case of `COC(=O)Cn1cnc2c(nnn2Cc2ccc(Cl)cc2)c1=O`, under setting [1], the AC50 is 12.6 µM [falling, partial curve].

As to `CCc1ccc(C(=O)NC(Cc2c[nH]c3ccccc23)C(=O)OCC(=O)c2ccc(Br)cc2)cc1` (stereo not drawn), the AC50 under setting [1] is 39.8 µM [falling, single point].

On to `CCOC(=O)c1cnc2ccccc2c1Nc1cccc(OC)c1`, for which, under setting [1], the AC50 is 39.8 µM [falling, single point].

Turning to `Cc1cc(-c2ccc(C)c(S(=O)(=O)Nc3cccc(C#N)c3)c2)on1`, the AC50 under setting [1] is 31.6 µM [falling, single point].

For `COc1ccc(/C=C/C(=O)Nc2ccc(Cl)c(Cl)c2)cc1`, under setting [1], the AC50 was 10 µM [falling, partial curve].

Turning to `CCCCn1c(NC(=O)c2ccccc2)c(C#N)c2nc3ccccc3nc21`, the AC50 under setting [1] was 3.98 µM [rising, single point] [measured here: IkB-luc green channel].

Regarding `COc1ccc(OC)c(C2C(C#N)=C(N)Oc3c2c(C)nn3-c2cccc(Cl)c2)c1` (stereo not drawn), the AC50 under setting [1] is 10 µM [falling, partial curve].

As to `Fc1cccc(Cl)c1Cn1nnc2c(N3CCC4(CC3)OCCO4)ncnc21`, the AC50 under setting [1] is 39.8 µM [falling, single point].

For the compound `C=CCC(CC=C)(CNC(=O)C(=O)Nc1ccc(C(=O)OCC)cc1)c1ccccc1`, the AC50 under setting [1] is 0.398 µM [rising, full curve].

On to `COC(=O)c1ccccc1NC(=O)c1cc2c(-c3ccc(OC)c(OC)c3)nn(C)c2s1`, for which the AC50 is 15.8 µM [rising, partial curve] under setting [2] and 25.1 µM [rising, partial curve] under setting [3].

For `Cc1ccc(NC(=O)C(Cc2ccccc2)n2cccc2)cc1C` (stereo not drawn), the AC50 under setting [1] is 39.8 µM [falling, single point].

With `Cc1ccc(-c2nc3ccccn3c2Nc2ccc3c(c2)OCO3)o1`, the AC50 under setting [1] is 25.1 µM [falling, single point].

For `COc1ccc(-c2nn(-c3cccc([N+](=O)[O-])c3)c3c2cnc2cc4c(cc23)OCO4)cc1`, the AC50 under setting [1] was 20 µM [rising, partial curve].

Turning to `CCCN(C(=O)c1cc2c(s1)-c1c(C)cccc1OC2)c1ccc(OCC)cc1`, under setting [1], the AC50 is 25.1 µM [falling, single point].

For `COc1ccc2[nH]c3c(=O)n(CCCCC(=O)N4CCC(C(N)=O)CC4)c(=S)[nH]c3c2c1`, the AC50 under setting [1] was 15.8 µM [falling, partial curve].

For `CCSc1nnnn1-c1cccc(C(=O)O)c1`, the concentration at half-maximal activity (AC50) under setting [1] was 0.0631 µM [rising, full curve, poor fit].

As for `COc1ccc(C2c3[nH]c4ccc(OC)cc4c3CCN2C(=O)Nc2ccccc2)cc1` (stereo not drawn), the AC50 under setting [1] was 7.94 µM [falling, partial curve].

Turning to `Cc1ccc(NC(=O)Cn2cc(S(=O)(=O)c3ccccc3)c(=O)c3cc4c(cc32)OCO4)cc1`, the AC50 under setting [1] is 2 µM [falling, full curve, poor fit].

Consider `Cc1ccc(CNC(=O)CSc2nc3n[nH]c(C)c3c(=N)n2-c2cccc(C)c2)cc1`, for which the AC50 under setting [1] was 39.8 µM [falling, partial curve, poor fit].

As for `CCOc1ccc(NC(=O)Cn2cc(S(=O)(=O)N3CCN(c4ccccc4F)CC3)c3ccccc3c2=O)cc1`, the AC50 under setting [1] was 10 µM [falling, partial curve].

On to `O=C(NCCc1csc2nc(-c3cccc(F)c3)nn12)c1ccc(Br)o1`, for which, under setting [1], the AC50 was 20 µM [falling, single point].

With `COc1ccc(N(CC(=O)N2CCN(c3ccc(F)cc3)CC2)S(=O)(=O)c2c(C)n[nH]c2C)cc1`, the AC50 under setting [1] was 7.94 µM [falling, partial curve].

`COc1cc(OC)cc(-c2cc3nc(C)c(CCC(=O)NC(C)CCc4ccco4)c(C)n3n2)c1` (stereo not drawn): the AC50 under setting [1] was 10 µM [falling, partial curve].

With `CCCCNc1nc2c(c(=O)n(Cc3ccc(Cl)c(Cl)c3)c(=O)n2C)n1C`, the AC50 under setting [1] was 15.8 µM [falling, partial curve].

Regarding `Cc1ccc(CNC(=O)c2cccc(-n3cnc4cccnc43)c2)cc1`, the AC50 under setting [1] was 31.6 µM [falling, single point].

With `CCOc1ccc2nc(NC(=O)CN3CCC(n4nnc5cc(F)ccc54)CC3)sc2c1`, the AC50 under setting [1] is 10 µM [falling, partial curve].

`CCc1ccc(NC(=O)CCNS(=O)(=O)c2ccc3c(c2)CCCC(=O)N3)cc1`: under setting [1], the AC50 was 25.1 µM [falling, single point].

Consider `COc1cccc(C(=O)Nc2c3c(nn2-c2ccc(Cl)cc2)CS(=O)(=O)C3)c1`, for which, under setting [1], the concentration at half-maximal activity (AC50) was 12.6 µM [falling, partial curve].

Take `COc1ccc(NC(=O)c2oc3ccc(S(=O)(=O)N(C)C4CCCCC4)cc3c2C)cc1`: under setting [1], the AC50 is 15.8 µM [falling, partial curve].

Consider `Cc1nn(-c2ccccc2)c(C)c1C(=O)OCC(=O)N1CC(=O)Nc2ccccc21`, for which the half-maximal activity concentration (AC50) under setting [1] is 31.6 µM [falling, single point].

`CCOC(=O)c1ccc(NC(=O)CSc2nc3c([nH]c4ccccc43)c(=O)n2C)cc1`: the AC50 under setting [2] was 39.8 µM [rising, single point] and the AC50 under setting [3] was 0.631 µM [rising, full curve].

With `Cc1ccccc1-c1noc(-c2cc(-c3ccc(F)cc3)n[nH]2)n1`, the AC50 under setting [1] was 0.0398 µM [falling, full curve].

With `CCCCc1nc2ccccc2n1CC(=O)N(COCC)c1c(C)cccc1CC`, the half-maximal activity concentration (AC50) under setting [1] is 25.1 µM [falling, single point].

Turning to `Cc1cc(C)cc(NC(=O)C2CCN(S(=O)(=O)c3ccc4c(c3)oc(=O)n4C)CC2)c1`, the AC50 under setting [1] was 10 µM [falling, partial curve].

As for `Oc1cc2ccccc2cc1-c1n[nH]c(=S)o1`, under setting [1], the concentration at half-maximal activity (AC50) was 20 µM [falling, partial curve].

With `COc1ccc(/C=C/C(=O)Nc2ccc3nc(N4CCCCC4)cc(C)c3c2)cc1OC`, the AC50 under setting [1] is 15.8 µM [falling, partial curve].

As to `CC(C)c1ccc(Nc2c(-c3ccco3)nc3ccccn23)cc1`, the half-maximal activity concentration (AC50) under setting [1] was 6.31 µM [falling, partial curve].

In the case of `COc1cc(NC(=O)c2ccc(-n3cnc4cccnc43)cc2)cc(OC)c1`, under setting [1], the AC50 is 2 µM [falling, full curve].

On to `Cc1ccc(S(=O)(=O)N(CC(=O)Nc2ccc3c(c2)OCO3)c2ccc(C)c(Cl)c2)cc1`, for which the half-maximal activity concentration (AC50) under setting [1] was 3.16 µM [falling, full curve, poor fit].

With `CCOC(=O)c1ccc(NC(=O)c2ccc(C)c(S(=O)(=O)N3CCOCC3)c2)cc1`, the AC50 under setting [1] was 2.51 µM [falling, full curve].

As to `CC1CCN(C(=O)C2CCN(C(=O)c3cc4sccc4n3Cc3ccc(F)cc3)CC2)CC1`, under setting [1], the AC50 is 15.8 µM [falling, partial curve].

For the compound `Cc1cc(C)c(NC(=O)Cn2nnc(-c3nc(-c4ccccc4)no3)c2N)c(C)c1`, the AC50 under setting [1] was 3.16 µM [falling, full curve].

In the case of `O=C(Nc1ccc2c(c1)nc1n2CCSC1)c1ccco1`, the AC50 under setting [1] was 3.98 µM [falling, full curve].

For the compound `CCN(CC)c1ccc2cc(-c3nc(-c4cc(OC)c(OC)c(OC)c4)no3)c(=O)oc2c1`, the AC50 under setting [1] was 31.6 µM [rising, partial curve].

Turning to `COC(=O)c1ccccc1NC(=O)Cn1c(=O)n(CCCC(=O)NCc2ccccc2OC)c(=O)c2ccccc21`, the AC50 under setting [1] was 7.94 µM [falling, partial curve].

Consider `CC(C)N(Cc1nc(-c2ccccc2)no1)C(=O)c1ccc(Cl)cc1`, for which the AC50 under setting [1] was 25.1 µM [falling, single point].

As to `CCOc1ccc(-n2nc(CO)c(C(=O)NCc3cccc(OC)c3)n2)cc1`, the AC50 under setting [1] was 15.8 µM [falling, single point].

In the case of `O=C(CCC1N=C2c3ccccc3N=C(SCc3ccc(F)cc3)N2C1=O)NC1CCCCC1` (stereo not drawn), the AC50 under setting [1] is 3.98 µM [falling, single point].

For `Cc1ccc(-c2oc3ccccc3c(=O)c2O)cc1`, the AC50 under setting [1] was 20 µM [rising, partial curve] [measured here: IkB-luc green channel].

As to `COc1cc2cc(CNc3ccccc3)c(=O)n(CC(=O)Nc3cc(C)cc(C)c3)c2cc1OC`, the AC50 under setting [1] is 12.6 µM [falling, single point].

Regarding `Cc1ccc(-c2cc(C(F)(F)F)nn2-c2ccc(S(N)(=O)=O)cc2)cc1`, the AC50 under setting [1] is 39.8 µM [falling, single point].

For the compound `COc1ccccc1NC(=O)C1CCN(c2cnccn2)CC1`, the AC50 under setting [1] was 25.1 µM [rising, single point].

Turning to `CC(=O)N1CCCc2cc(S(=O)(=O)N3CCN(c4cccc(C(F)(F)F)c4)CC3)ccc21`, the half-maximal activity concentration (AC50) under setting [1] was 15.8 µM [falling, partial curve].

As for `CCOc1ccc(NC(=O)Nc2ccc3c(c2)N(C)C(=O)CS3)cc1`, the AC50 under setting [1] was 12.6 µM [falling, partial curve].

As for `Cc1ccc(-n2nc(C)c3c(C(=O)O)cc(C)nc32)cc1`, the AC50 under setting [1] is 10 µM [falling, partial curve].

As to `CCOc1ccc(-c2cc(C(=O)NCCc3ccccc3)c3c(-c4ccc(C)cc4)[nH]nc3n2)cc1`, the AC50 under setting [1] was 0.0631 µM [rising, full curve, poor fit].

As for `Cc1ccc(Oc2nc3ccccn3c(=O)c2/C=C(\C#N)c2nc3ccccc3s2)c(C)c1`, the AC50 under setting [1] is 7.94 µM [falling, single point].

On to `CCN(CC)c1ccc(NS(=O)(=O)c2ccc(-c3coc(C)n3)cc2)c(C)c1`, for which, under setting [1], the AC50 was 15.8 µM [falling, partial curve].
